The source of these data is publication PMC8806721.

Amino acid sequences for entries named in this document (tags omitted).
UniProt Q9UMX0: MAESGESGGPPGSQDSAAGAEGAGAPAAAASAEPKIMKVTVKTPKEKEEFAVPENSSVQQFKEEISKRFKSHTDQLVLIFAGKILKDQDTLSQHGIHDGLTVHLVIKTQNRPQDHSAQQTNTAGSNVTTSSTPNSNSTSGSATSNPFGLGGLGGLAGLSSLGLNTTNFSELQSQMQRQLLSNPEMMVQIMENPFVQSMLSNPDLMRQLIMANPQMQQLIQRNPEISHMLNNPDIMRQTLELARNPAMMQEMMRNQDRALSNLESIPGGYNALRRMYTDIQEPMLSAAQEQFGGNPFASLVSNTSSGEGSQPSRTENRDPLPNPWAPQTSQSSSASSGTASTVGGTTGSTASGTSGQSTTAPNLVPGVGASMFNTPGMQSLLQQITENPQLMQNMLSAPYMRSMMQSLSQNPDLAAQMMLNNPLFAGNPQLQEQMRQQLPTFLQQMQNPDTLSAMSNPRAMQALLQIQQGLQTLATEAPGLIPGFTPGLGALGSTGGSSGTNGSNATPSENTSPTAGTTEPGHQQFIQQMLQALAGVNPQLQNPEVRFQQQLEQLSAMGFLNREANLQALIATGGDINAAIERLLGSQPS

The experiment deals with T1, peroxisome proliferator-activated receptor γ coactivator 1α (UniProt Q9UBK2).
T1 sequence: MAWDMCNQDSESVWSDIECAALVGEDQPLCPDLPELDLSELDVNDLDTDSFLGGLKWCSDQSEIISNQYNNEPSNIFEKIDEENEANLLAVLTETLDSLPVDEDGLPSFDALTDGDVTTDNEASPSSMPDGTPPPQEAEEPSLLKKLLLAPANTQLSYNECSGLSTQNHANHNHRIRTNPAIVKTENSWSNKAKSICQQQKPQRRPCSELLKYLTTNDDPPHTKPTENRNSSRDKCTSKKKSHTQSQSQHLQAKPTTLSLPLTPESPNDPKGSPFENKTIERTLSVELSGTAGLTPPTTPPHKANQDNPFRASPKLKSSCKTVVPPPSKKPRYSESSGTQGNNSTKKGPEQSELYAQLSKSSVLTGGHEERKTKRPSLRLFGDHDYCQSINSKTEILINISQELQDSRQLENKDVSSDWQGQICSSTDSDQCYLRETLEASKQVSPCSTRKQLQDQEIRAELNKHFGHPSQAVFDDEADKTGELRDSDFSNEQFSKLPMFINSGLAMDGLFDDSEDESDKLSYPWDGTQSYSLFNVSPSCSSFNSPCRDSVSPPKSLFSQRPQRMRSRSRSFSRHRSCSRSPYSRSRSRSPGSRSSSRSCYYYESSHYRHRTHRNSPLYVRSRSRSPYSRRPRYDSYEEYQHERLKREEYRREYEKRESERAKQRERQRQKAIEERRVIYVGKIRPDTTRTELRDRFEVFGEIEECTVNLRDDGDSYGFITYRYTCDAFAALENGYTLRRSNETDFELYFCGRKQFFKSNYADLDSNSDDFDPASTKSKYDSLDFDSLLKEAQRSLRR
Put plainly: co-IP; Co-IP analysis of the UBQLN1-PGC1α interaction; cells, precipitating antibody and conditions not told.

No constants are given. Whether binding was seen depends on the method and setting. In cells and extracts the contact can be indirect. Some entries that bind do so weakly or less than the wild type.

Regarding Ubiquilin 1 (from UniProt Q9UMX0 1-589), the binding entry is reported as “binds”.
